This note sets out measurements from article PMC1540706.

Sequences of proteins named here, by UniProt entry; tags and fusion partners are left off. Residues count along the entry.
UniProt P63010, residues 700-937: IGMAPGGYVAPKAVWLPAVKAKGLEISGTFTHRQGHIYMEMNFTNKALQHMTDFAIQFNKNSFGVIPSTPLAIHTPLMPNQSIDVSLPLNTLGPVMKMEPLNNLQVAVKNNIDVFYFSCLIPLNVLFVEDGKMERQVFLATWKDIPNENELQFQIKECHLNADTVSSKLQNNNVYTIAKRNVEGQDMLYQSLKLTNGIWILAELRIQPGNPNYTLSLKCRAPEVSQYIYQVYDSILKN

The target in this assay is GST-human-β2-appendage (700–937) (human) (UniProt P63010). The experiment in a line: affinity purification with mass spectrometry; 30–100 μg GST-appendage on glutathione-sepharose beads in HeLa cell extract (150 mM NaCl, 20 mM HEPES pH 7.4, 2 mM DTT, NP40, 0.1% Tx-100), 1 h at 4 °C, 4 washes; Coomassie bands read by LC-MS/MS; only the target purified.

These are yes or no findings as the source states them, for the method shown. In cells and extracts the contact can be indirect. A yes stands for co-enrichment or nearness to the bait. Other partners may have been found.

B1: HivRevBP (protein, UniProt P52594-1 1-562)
chain: MAASAKRKQEEKHLKMLRDMTGLPHNRKCFDCDQRGPTYVNMTVGSFVCTSCSGSLRGLNPPHRVKSISMTTFTQQEIEFLQKHGNEVCKQIWLGLFDDRSSAIPDFRDPQKVKEFLQEKYEKKRWYVPPEQAKVVASVHASISGSSASSTSSTPEVKPLKSLLGDSAPTLHLNKGTPSQSPVVGRSQGQQQEKKQFDLLSDLGSDIFAAPAPQSTATANFANFAHFNSHAAQNSANADFANFDAFGQSSGSSNFGGFPTASHSPFQPQTTGGSAASVNANFAHFDNFPKSSSADFGTFNTSQSHQTASAVSKVSTNKAGLQTADKYAALANLDNIFSAGQGGDQGSGFGTTGKAPVGSVVSVPSQSSASSDKYAALAELDSVFSSAATSSNAYTSTSNASSNVFGTVPVVASAQTQPASSSVPAPFGATPSTNPFVAAAGPSVASSTNPFQTNARGATAATFGTASMSMPTGFGTPAPYSLPTSFSGSFQQPAFPAQAAFPQQTAFSQQPNGAGFAAFGQTKPVVTPFGQVAAAGVSSNPFMTGAPTGQFPTGSSSTNPFL
With B1, the binding entry is “binds”.

B2: RalBP1 (protein, UniProt Q96D71 1-796)
chain: MEGLTLSDAEQKYYSDLFSYCDIESTKKVVVNGRVLELFRAAQLPNDVVLQIMELCGATRLGYFGRSQFYIALKLVAVAQSGFPLRVESINTVKDLPLPRFVASKNEQESRHAASYSSDSENQGSYSGVIPPPPGRGQVKKGSVSHDTVQPRTSADAQEPASPVVSPQQSPPTSPHTWRKHSRHPSGGNSERPLAGPGPFWSPFGEAQSGSSAGDAVWSGHSPPPPQENWVSFADTPPTSTLLTMHPASVQDQTTVRTVASATTAIEIRRQSSSYDDPWKITDEQRQYYVNQFKTIQPDLNGFIPGSAAKEFFTKSKLPILELSHIWELSDFDKDGALTLDEFCAAFHLVVARKNGYDLPEKLPESLMPKLIDLEDSADVGDQPGEVGYSGSPAEAPPSKSPSMPSLNQTWPELNQSSEQWETFSERSSSSQTLTQFDSNIAPADPDTAIVHPVPIRMTPSKIHMQEMELKRTGSDHTNPTSPLLVKPSDLLEENKINSSVKFASGNTVADGYSSSDSFTSDPEQIGSNVTRQRSHSGTSPDNTAPPPPPPRPQPSHSRSSSLDMNRTFTVTTGQQQAGVVAHPPAVPPRPQPSQAPGPAVHRPVDADGLITHTSTSPQQIPEQPNFADFSQFEVFAASNVNDEQDDEAEKHPEVLPAEKASDPASSLRVAKTDSKTEEKTAASAPANVSKGTTPLAPPPKPVRRRLKSEDELRPEVDEHTQKTGVLAAVLASQPSIPRSVGKDKKAIQASIRRNKETNTVLARLNSELQQQLKDVLEERISLEVQLEQLRPFSHL
B2: the binding result is “binds”.
